Laboratory results from patent publication US20180334646A1.
No constants are given. Whether binding was seen depends on the method and setting. For some of these results: In cells and extracts the contact can be indirect. Some entries that bind do so weakly or less than the wild type.

Sequences of proteins named here, by UniProt entry; tags and fusion partners are left off. Residues count along the entry.
UniProt O15105: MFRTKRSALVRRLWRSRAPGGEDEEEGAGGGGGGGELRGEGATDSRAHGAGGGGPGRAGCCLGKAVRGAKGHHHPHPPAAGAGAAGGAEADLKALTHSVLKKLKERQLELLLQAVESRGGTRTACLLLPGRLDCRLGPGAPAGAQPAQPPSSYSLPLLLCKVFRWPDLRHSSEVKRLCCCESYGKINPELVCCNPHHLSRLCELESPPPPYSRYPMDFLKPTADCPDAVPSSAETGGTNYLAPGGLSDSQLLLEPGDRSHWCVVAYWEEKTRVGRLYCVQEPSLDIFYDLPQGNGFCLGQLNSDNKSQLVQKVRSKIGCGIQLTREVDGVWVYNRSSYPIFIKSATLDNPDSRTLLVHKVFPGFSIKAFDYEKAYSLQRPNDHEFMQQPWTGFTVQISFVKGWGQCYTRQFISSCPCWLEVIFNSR
UniProt Q32ZE1, residues 1143-1368: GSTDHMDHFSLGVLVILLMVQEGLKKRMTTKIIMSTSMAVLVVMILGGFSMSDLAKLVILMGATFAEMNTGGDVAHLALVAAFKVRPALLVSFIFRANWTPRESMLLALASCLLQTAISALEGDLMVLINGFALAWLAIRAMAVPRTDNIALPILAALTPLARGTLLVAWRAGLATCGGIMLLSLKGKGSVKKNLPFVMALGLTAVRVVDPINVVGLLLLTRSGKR

How the values were obtained:
[1] = biological target: SMAD7 (human) (UniProt O15105); test: co-immunoprecipitation from HEK293 cells expressing ZIKV-NS2A-HA (anti-HA beads), Western blot
[2] = biological target: T1, NUMBL (human) (UniProt Q9Y6R0); test: as above
T1 sequence: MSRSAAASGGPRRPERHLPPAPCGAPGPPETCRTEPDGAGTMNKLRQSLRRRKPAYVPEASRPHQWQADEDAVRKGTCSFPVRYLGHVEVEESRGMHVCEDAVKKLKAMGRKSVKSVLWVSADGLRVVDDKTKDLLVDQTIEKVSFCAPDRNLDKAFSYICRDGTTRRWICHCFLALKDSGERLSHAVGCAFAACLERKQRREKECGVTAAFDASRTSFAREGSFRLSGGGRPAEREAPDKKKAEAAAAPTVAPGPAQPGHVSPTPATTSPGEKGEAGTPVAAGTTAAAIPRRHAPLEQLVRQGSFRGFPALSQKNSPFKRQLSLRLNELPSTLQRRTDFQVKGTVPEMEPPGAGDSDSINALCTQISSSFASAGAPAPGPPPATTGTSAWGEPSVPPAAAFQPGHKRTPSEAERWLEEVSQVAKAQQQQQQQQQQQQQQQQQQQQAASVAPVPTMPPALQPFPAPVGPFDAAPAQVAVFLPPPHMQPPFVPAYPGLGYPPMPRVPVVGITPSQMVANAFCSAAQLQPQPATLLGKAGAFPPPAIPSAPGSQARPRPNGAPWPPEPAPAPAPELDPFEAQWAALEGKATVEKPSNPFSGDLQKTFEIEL

[3] = biological target: SMAD7 (human) (UniProt O15105); test: HuProt human protein microarray probed with Cy5-labelled GST-NS2A; hit cutoff Z>10
[4] = biological target: T1, NUMBL (human); test: as above

Row | Substance | binding [1] | binding [2] | binding [3] | binding [4]
1 | HA-tagged ZIKV-NS2A (C-terminal HA), expressed in HEK293 cells (from UniProt Q32ZE1 1143-1368) | binds | binds | – | –
2 | recombinant ZIKV-NS2A protein (N-terminal GST fusion, Cy5-labelled) (from UniProt Q32ZE1 1143-1368) | – | – | binds | binds
